Assay results reported in publication PMC10163288.
The list shows a part of the results.

B1: il10ra_site1_normal_mot_HHH_b2_01235_000000294_0001_1_18_H_._HHH_b1_00824_0001_0000500046_0000002_0 (protein)
chain: SSSSSAQELYELSRRASELDLEGNPEEAERLLEEAIKLAEELGNETLLATLRNLLRLIERSSSSS
B2: il10ra_site1_normal_mot_HHH_b2_05343_000000235_0001_19_35_H_._HHH_b2_05319_0001_0000200016_0000001_0 (protein)
chain: SSSSSSEVEERVEELLEEARHVSAQERFKLLREAIELATENRNQELARLVIRVIRELLESSSSSS
B3: il10ra_site1_sap_18_mot_HHH_b1_03314_af2_000000278_0001_42_55_H_._HHH_b1_08718_af2_0001_0001700043_0000001_0_0001_af2pred_0001 (protein)
chain: SELEEIAERALRLGDEEVQLVAAALLLAEQANSPRLKEAAEELVERLVEKGNPLAEELLRLIKEK
B4: il10ra_site1_normal_mot_HHH_b1_06914_000000280_0001_1_18_H_._HHH_b2_04176_af2_0001_0000300012_0000001_0 (protein)
chain: SSSSDEEVYELLRRAAELLAQGNLEEAEKVLEEAEQLARELNNPVLLFNIRLLLRDVEEAGSSSS
B5: il10ra_site1_normal_mot_HHH_b2_00441_000000147_0001_1_18_H_._HHH_b2_07657_0001_0000100003_0000001_0 (protein)
chain: SSSSDLEEYVELTIRFAEALAESGDPEAARALLRLILDSLRLNNNEELIEEVEEALERLEKSSSS
B6: il10ra_site1_sap_20_mot_HHH_b2_02497_000000220_0001_1_20_H_._74d410084df75ce7804895407938b8fc_0001_0001_0000200006_0000001_0_0001 (protein)
chain: SSSSSTTHELYELLREAIELRAEGNPEEAERVLEEAEELAREAGNPVFEFNVRAIRKAINSSSSS
B7: il10ra_site1_sap_20_mot_HHH_b1_05326_000000242_0001_1_20_H_._HHH_b2_05097_af2_0001_0000500014_0000002_0_0001 (protein)
chain: SSSSSSVEELAEEAQELAEERGDREAQDLVEAIKRLARQGALDPEFARISLELLIELLRESSSSS
B8: il10ra_site1_normal_mot_HHH_b2_07488_000000216_0001_1_17_H_._20bd334181f53d5e88893876e50d2750_0001_af2_0001_0000300009_0000002_0 (protein)
chain: DPEVEEVLEEVKEEFKDDPKARLAVRFAEALLEAGNPKAALSLLRQLAQALGDPELLRKVEELLK
B9: il10ra_site1_sap_27_mot_513c16ae44941e68898e0f7c259e5a28_0001_1_000000056_0001_35_50_H_._HHH_b2_03708_0001_0000400029_0000001_1_0001 (protein)
chain: SSSSSDEEERLEELLEEVEEAIREGDDEKALRLIQEALRIVFQLGDEEALRRLFRLTRKLSSSSS
B10: il10ra_site1_normal_mot_HHH_b2_02537_000000065_0001_1_20_H_._HHH_b1_01288_0001_0000200020_0000001_1 (protein)
chain: SSSSSTDEEFKEVKRLIELLAEARSEEEREEIEELMEELQKHVNEIFRFALEHFLRLQRSSSSSS
B11: il10ra_site1_normal_mot_HHH_b2_02337_000000026_0001_38_52_H_._HHH_b1_02031_af2_0001_0000400017_0000001_0 (protein)
chain: SSSSSDEEEEEVRELLEEAKRIPDPQERARILQEATHIAIQLGDAELLKLVWEVVQKLASSSSSS
B12: il10ra_site1_normal_mot_HHH_b1_06914_000000280_0001_1_18_H_._HHH_b1_05917_0001_0000100005_0000001_0 (protein)
chain: SSSSTEEDERIYELLRRALEIDDEEEARELVEEAEELAEERDSKVLLFNIRFLLRTLREESSSSS
B13: il10ra_site1_normal_mot_HHH_b2_00837_af2_000000287_0001_40_54_H_._HHH_b2_04396_af2_0001_0000400016_0000001_0 (protein)
chain: SSSSDEEEELEELLRELKKLLEEGDIEELARLAAEAVRLAFRLGDAETLKEIWELVRRVKSSSSS
B14: il10ra_site1_sap_28_mot_HHH_b2_00475_000000002_0001_44_57_H_._HHH_b2_06507_0001_0000400024_0000001_0_0001_af2pred_0001 (protein)
chain: SSSSSEEEEIRRLLLRARQLLLKGDPEEAEELLREAQELAEELGDPQLREFVKLVASRLRESSSS
B15: il10ra_site1_sap_24_mot_HHH_b1_07743_af2_000000164_0001_42_55_H_._HHH_b2_05048_0001_0000500019_0000002_1_0001 (protein)
chain: SSSSDEEERALELIVKAFRAALRGNPEEAEELLEEAKELLEKAGDERLLEMVKDLEKVLESSSSS
B16: il10ra_site1_sap_16_mot_HHH_b2_05005_af2_000000217_0001_43_56_H_._HHH_b1_02310_af2_0001_0000200007_0000002_0_0001 (protein)
chain: SSSSEEERLEKLLEEIEELIKEGDLEEALQVLWELVKLAAELNDEEILRKVLELLKELLERSSSS
B17: il10ra_site1_sap_20_mot_HHH_b2_02537_000000065_0001_1_20_H_._HHH_b1_03944_0001_0000100001_0000001_0_0001_af2pred_dldesign_0_af2pred (protein)
chain: SSSSAAERAEVDALLAEARRLKDPLLRSHTLLQAYGLANKINDPEAVARVKEVALALAAESSSSS
B18: il10ra_site1_normal_mot_HHH_b1_08477_000000091_0001_40_57_H_._HHH_b1_07800_0001_0000400015_0000001_0_af2pred_0001 (protein)
chain: SSSSDDIERRVELAIRFAEFLAEQGDPEAARLLIRAALQIAKKNNNEELEEKLQELLEELESSSS

Target: il10ra, Q13651
Experiment: yeast display titration

| Binder | apparent Kd |
| --- | --- |
| B1 | inactive: no binding seen |
| B2 | inactive: no binding seen |
| B3 | inactive: no binding seen |
| B4 | inactive: no binding seen |
| B5 | inactive: no binding seen |
| B6 | inactive: no binding seen |
| B7 | inactive: no binding seen |
| B8 | inactive: no binding seen |
| B9 | inactive: no binding seen |
| B10 | inactive: no binding seen |
| B11 | inactive: no binding seen |
| B12 | inactive: no binding seen |
| B13 | inactive: no binding seen |
| B14 | inactive: no binding seen |
| B15 | inactive: no binding seen |
| B16 | inactive: no binding seen |
| B17 | inactive: no binding seen |
| B18 | inactive: no binding seen |

Two consecutive entries already listed:

| Binder | apparent Kd |
| --- | --- |
| B10 | inactive: no binding seen |
| B11 | inactive: no binding seen |
